Test results published in paper PMC3121775.
Results are given in words; binding and its absence hold for the method and conditions named.

Target: Hrk-TM, transmembrane domain of human Harakiri (residues 61-91) (human) (UniProt O00198)
Test: migration in SDS-PAGE; Hrk-TM at 0.16-0.5 mM in SDS-polyacrylamide gel, migration compared with lysozyme (~14 kDa) and gpW (~7 kDa); both purified

binding: no binding (tested: 0.5 mM)
Substance: Hrk-TM, transmembrane domain of human Harakiri (residues 61-91) (from UniProt O00198 61-91) (peptide)
